For 48 compounds, activity change, negative = inhibition results are on record in PubChem BioAssay AID651803 (National Center for Advancing Translational Sciences (NCATS), 2012).

Protein sequences, listed by entry. Tags and fused reporters are not part of them. Lines headed by an entry give the natural chain unless they say otherwise; changes in a name come on top.
UniProt P11308: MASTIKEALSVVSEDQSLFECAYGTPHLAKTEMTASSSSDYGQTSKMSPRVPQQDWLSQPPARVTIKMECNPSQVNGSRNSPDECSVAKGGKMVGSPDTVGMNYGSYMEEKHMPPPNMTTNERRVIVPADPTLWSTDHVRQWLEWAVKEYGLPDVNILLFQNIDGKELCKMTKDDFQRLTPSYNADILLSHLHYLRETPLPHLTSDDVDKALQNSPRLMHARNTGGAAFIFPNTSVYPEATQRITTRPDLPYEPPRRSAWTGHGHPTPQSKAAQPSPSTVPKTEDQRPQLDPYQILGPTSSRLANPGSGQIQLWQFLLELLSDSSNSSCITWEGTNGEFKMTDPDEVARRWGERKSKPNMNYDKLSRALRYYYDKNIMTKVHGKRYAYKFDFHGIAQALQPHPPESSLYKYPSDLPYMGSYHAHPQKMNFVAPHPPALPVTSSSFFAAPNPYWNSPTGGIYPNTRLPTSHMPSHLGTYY

Among all 1,200 compounds or so, fewer than 10 were called active. The call rests on the fitted dose curve; in most records, active means well fitted curve in the direction sought with a large enough effect; inconclusive means small, poorly fitted or top-dose-only effect, or another doubt; inactive means no such curve, though single readings can be large or run the other way. This is one part of the list.

This assay concerns the target Transcriptional regulator ERG (Homo sapiens) (UniProt P11308). Put plainly: qHTS for Small Molecule Inhibitors of the ERG Ets/DNA interaction: TR assay against cherry picks. Further: % of control where 0% means no effect. To be noted: ERG Ets domain-DNA fluorescence polarization, Texas red probe; at 154 µM (top of the series). From the text:
The Ets family of proteins is a family of ~30 conserved transcription factors defined by the presence of an ~85 amino acid domain referred to as the Ets domain, which mediates sequence-specific DNA binding to a core DNA element GGAA/T.The Ets family member ERG has been linked to several neoplasms. […] More extensive studies of the effects of over-expression of ERG in prostate cells have recently been carried out and have shown that over-expression of ERG results in increased invasion. […] We will carry out a high throughout screen to identify inhibitors of the interaction between ERG and DNA using a fluorescence polarization (FP) assay with a His-tagged ERG Ets domain and fluorescently-labeled DNA probes to develop small molecule inhibitors of this interaction as probes to test this hypothesis and lay the groundwork for the development of targeted therapies against ERG. This is the confirmation against the cherry picks in theprimary screening assay. NIH Molecular Libraries Probe Production Network [MLPCN] NIH Chemical Genomics Center [NCGC] Grant: NS066464 PI Name: John Bushweller, University of Virgina
1.5 ul of protein solution (1 uM ERG domain in 300mM KCl, 50mM Tris-HCl, 1mM EDTA, 1mM DTT, pH 7.5); 20 nl Control plate and compound library plate; 1.5 ul mixture of 5 nM Fluorescein-DNA and 100nM Texas-615-DNA solution in same buffer as above solution; measure fluorescence polarization sequentially for fluorescein (Excitation = 480 nm, Emission = 535s, 535p nm) and Texas red (Excitation = 555 nm, Emission = 632s, 632p nm).
A general note: qHTS replaces the single test concentration by a dilution series.
`COc1ccc(C(=S)N2CCN(c3ccccc3C)CC2)cc1OC`: the activity change, negative = inhibition is inactive: -5.46%. In the case of `OC(CNc1ncnc2sccc12)c1ccccc1` (stereo not drawn) it was inactive: 4.07%.

As to `OCCN1CCN(CCCN2c3ccccc3Sc3ccc(Cl)cc32)CC1`, the activity change, negative = inhibition is inactive: -13.3%. On to `COc1ccccc1N1CCN(C(=O)CSc2nc(C)c(Cc3ccccc3)c(=O)[nH]2)CC1`, for which the activity change, negative = inhibition was inactive: 1.96%. Under `CCOC(=O)COc1ccccc1/C=N/O` stands inactive: -6.71%; under `CC(C)n1cnc2c(NCc3ccccc3)cc(N[C@H](C)CO)cc21`, inactive: 0.94%. Under `CCOC(=O)c1ccc(-c2ccc(/C=C(\C#N)C(=O)Nc3cccc(C)c3)o2)cc1` stands inactive: 30.3%; under `COc1ccc(Nc2ccnc(Nc3ccc(OC)cc3)n2)cc1`, inactive: -19.5%; under `CC1(C)C2CCC1(C)C(NCC(O)COc1ccc(C#N)cc1)C2` (stereo not drawn), inactive: 2.63%. Under `CCOC(=O)NC(=S)Nc1ccc(C(C)(C)C)cc1Br` stands inactive: -1.62%; under `COc1ccc(S(=O)(=O)N2CCc3ccccc32)cc1C(=O)N(CC(C)C)C1CCS(=O)(=O)C1` (stereo not drawn), inactive: 0.304%. Take `CCN(CC(=O)Nc1ccc(N2CCOCC2)cc1)CC(=O)NC(C)(C)C`: the activity change, negative = inhibition is inactive: -0.837%.

Take `COCc1cc(C)nc(SCC(=O)Nc2ccc3c(c2)OCCO3)c1C#N`: the activity change, negative = inhibition is inactive: -4.26%.

`CSCCC(NC(=O)/C(=C/c1ccc2c(c1)OCO2)NC(=O)c1cccc([N+](=O)[O-])c1)C(=O)O` (stereo not drawn): the activity change, negative = inhibition was inactive: 1.28%. Under `COc1ccc(-c2csc3ncnc(N4CCN(S(=O)(=O)c5ccccc5C#N)CC4)c23)cc1` stands inactive: 2.84%; under `COc1ccc(NC2CCCN(C(=O)C3(C)CCCCC3)C2)cc1OC` (stereo not drawn), inactive: 1.15%; under `O=C(NCc1ccccc1)N1CCNCC1`, inactive: 1.58%. In the case of `Cc1cc(NC(=O)COc2ccc(F)c(Cl)c2)no1` it was inactive: -11%.

`CC(=O)Nc1ccc(NC(=O)Nc2ccc(C)cc2C)cc1`: the activity change, negative = inhibition was inactive: 1.3%. In the case of `Cc1[nH]n(-c2ccccc2)c(=O)c1C=Nc1ccc(S(=O)(=O)NC(N)=O)cc1` it was inactive: 2.37%; in that of `CCOc1ccc(C(CC(=O)O)NC(=O)Cc2ccc(Cl)cc2)cc1` (stereo not drawn), inactive: -4.51%. In the case of `CNC(=O)c1cccc(-n2c(C)nc3cccnc32)c1C` it was inactive: 13%; in that of `CN1CCN(C(=O)C2=C[C@@H](C(C)(C)C)C[C@@H](OCc3ccc(CO)cc3)O2)CC1`, inactive: 2.83%. Under `COc1ccc(NC(=O)C2CC(=O)n3c(nc4ccccc43)N2)cc1` (stereo not drawn) stands inactive: 10.4%. As for `COc1ccc(-c2csc3nc(-c4ccc(C)cc4)oc(=O)c23)cc1OC`, the activity change, negative = inhibition was inactive: 5.65%. Under `C/C(=N\Nc1ccc([N+](=O)[O-])cc1[N+](=O)[O-])C(C)C(C)C` (stereo not drawn) stands inactive: -0.325%. Under `Cc1nc(Nc2cccc(F)c2)c2oc3ccccc3c2n1` stands inactive: 1.1%. Under `CCC(=O)NCCn1c(C)cc2ccccc21` stands inactive: 4.77%. For the compound `COc1cc(/C=C/C(=O)OCC(=O)NC(=O)NC2CCCCC2C)ccc1OC(F)F` (stereo not drawn), the activity change, negative = inhibition is inactive: 1.76%.

Consider `COc1ccc(C)cc1N(C(=O)c1ccc(C#N)cc1)C1=NC(C)(C)CS1`, for which the activity change, negative = inhibition is inactive: -7.4%. Under `COc1ccc(S(=O)(=O)NCC2CC3C=CC2C3)cc1OC` (stereo not drawn) stands inactive: -2.44%. Under `Cc1ccccc1OCC(=O)Nc1ccc2[nH]ncc2c1` stands inactive: -5.59%; under `CC(C)C(=O)Nc1ccc(-c2nc3ncccc3o2)cc1`, inactive: 2.57%. As for `COc1ccc(OCCn2c(=O)sc3ccccc32)cc1`, the activity change, negative = inhibition was inactive: 3.71%. Under `COc1ccccc1OCC(O)CN1CCN(CC(=O)Nc2c(C)cccc2C)CC1` (stereo not drawn) stands inactive: 1.41%. Under `CC(C)=CCOc1ccc2c(C)c(CC(=O)N3C[C@H]4C[C@@H](C3)c3cccc(=O)n3C4)c(=O)oc2c1C` stands inactive: -10.3%; under `CCOC(=O)C(=O)c1c(-c2ccccc2)nc2ccccn12`, inactive: -0.0707%; under `CN1C(=O)c2cccc3c(N)ccc(c23)C1=O`, inactive: 5.1%. In the case of `O=C(CCNS(=O)(=O)c1ccc2c(c1)CCN2C(=O)C1CC1)Nc1ccc(F)cc1F` it was inactive: -13.1%; in that of `O=C1c2ccccc2C(=O)c2c1ncn2-c1ccccc1`, inactive: -4.24%.

As for `Cc1ccc(-c2nc(CN3CCCC(C(=O)N4CCOCC4)C3)c(C)o2)cc1` (stereo not drawn), the activity change, negative = inhibition was inactive: 4.94%. Take `Cc1ccccc1NC(=O)c1ccccc1-c1ccccc1`: the activity change, negative = inhibition was inactive: -8.52%. Under `COc1ccc(CNC(=O)N[C@@H](Cc2c[nH]c3ccccc23)C(=O)O)cc1` stands inactive: 3.14%; under `Nc1ccc2[nH]ncc2c1`, inactive: 5.38%. `COc1ccc(NS(=O)(=O)c2cccc(NC(=O)NC3CCCCC3)c2)cc1`: the activity change, negative = inhibition is inactive: -10.5%. In the case of `O=C(c1c(F)cccc1Cl)N1CCN(c2ccccn2)CC1` it was inactive: 4.07%; in that of `O=C(CCc1c[nH]c2ccccc12)NCc1ccco1`, inactive: -11.1%. In the case of `Cc1ccc(NC(=O)Cc2c(O)c3ccccc3[nH]c2=O)c(C)c1` it was inactive: 5.52%.
